The supplement of paper PMC10735217
Where “and” joins values, the source holds several entries; their conditions need not be identical. Identical values can stand only once. Counter-ions that a name gives are not always drawn. The list shows a part of the results. Single values are uncertain here, since repeats match poorly.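 Human kidney-derived cells stably carry a construct in which eight TEAD-binding elements drive luciferase, measured by luminescence in a drug-repurposing library screen. A hit is any compound whose signal exceeds the plate mean by more than five robust Z scores.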

Test system: HEK293A TEAD-LUC reporter
Assay: TEAD-luciferase reporter activity (YAP activation), robust Z score vs plate; higher = stronger YAP/TEAD activation
Details: 24 h

Row | Structure (SMILES) | TEAD-luciferase reporter activity (compound concentration: 200 nM) | TEAD-luciferase reporter activity (compound concentration: 2 uM) | TEAD-luciferase reporter activity (compound concentration: 10 uM)
1 | Cn1cccc1C(=O)C(C#N)C(=O)Nc1ccccc1 (stereo not drawn) [Prinomide tromethamine] | inactive: -1.84 | inactive: 0.00465 | inactive: 2.25
2 | COC(=O)COc1ccc(/C(C)=N/OCc2sc(-c3ccc(C(F)(F)F)cc3)nc2C)cc1C | inactive: 0.313 | inactive: -0.0428 | inactive: -0.312
3 | OCC(O)COc1ccc(Cl)cc1 (stereo not drawn) | inactive: -1.91 | inactive: -2.06 | inactive: 0.263
4 | CC[C@H](C)[C@H](N)C(=O)N1CCSC1 [Isoleucine-thiazolidide] | inactive: 4.77 | inactive: 0.873 | inactive: 1.01
5 | C/C(=C\CNc1ncnc2[nH]cnc12)CO [Zeatin] | active: 7.48 | inactive: -0.118 | inactive: 1.48
6 | CCOC(=O)CC(O)c1cccc2nc(CCc3ccccc3)[nH]c12 (stereo not drawn) | inactive: 3.18 | inactive: -0.907 | inactive: 0.157
7 | CC(O)Cn1cnc2c1c(=O)n(C)c(=O)n2C (stereo not drawn) [Proxyphylline] | inactive: -0.769 | – | inactive: 0.729
8 | CC(O)Cn1cnc2c1c(=O)n(C)c(=O)n2C (stereo not drawn) | – | inactive: 0.477 | –
9 | CCC(C)N(CC(O)c1cccn1Cc1ccccc1Cl)C(C)CC (stereo not drawn) | inactive: -0.573 | inactive: -0.495 | inactive: 4.41
10 | CS/C(=N/C#N)NCCCOc1cccc2cnccc12 | inactive: 0.234 | inactive: 0.139 | inactive: -0.276
11 | Cn1cc(C(=O)O)c(=O)c2cc3cc(F)c(N4CCN(c5ccc(F)cc5)CC4)cc3nc21 | inactive: -0.161 | inactive: -1.14 | inactive: -1.74
12 | NC(N)=NCc1ccc2c(c1)OCCO2 | inactive: -0.45 | inactive: -1.05 | inactive: -0.424
13 | CC(=O)OCC(=O)[C@H]1CC[C@H]2[C@@H]3CCC4=CC(=O)CC[C@]4(C)[C@H]3CC[C@]12C | inactive: -0.629 | inactive: -1.92 | inactive: 1.16
14 | Cn1nc(-c2cccc(F)c2)n(C)c1=S [Suritozole] | inactive: 2.6 | inactive: 2.04 | inactive: 3.3
15 | N=C(N)NCCCC[C@@H]1NC(=O)CCSSC[C@@H](C(N)=O)NC(=O)[C@@H]2CCCN2C(=O)[C@H](Cc2c[nH]c3ccccc23)NC(=O)[C@H](CC(=O)O)NC(=O)CNC1=O [eptifibatide] | inactive: -1.32 | inactive: 2.07 | inactive: 2.55
16 | NC(=NC(=O)c1nc(Cl)c(N)nc1N)NCc1ccccc1 [Benzamil hydrochloride] | inactive: -0.255 | inactive: -2.43 | inactive: -0.233
17 | CCc1cccc2c1c(O)c(C(=O)N(CC)c1ccccc1)c(=O)n2C [Paquinimod] | inactive: -0.774 | – | inactive: 1.51
18 | CCN1CCCCC12Cc1ccccc1CN(C(C)=O)C2 (stereo not drawn) | inactive: 1.84 | – | inactive: 1.33
19 | Cc1cn([C@H]2C=C[C@@H](CO)O2)c(=O)[nH]c1=O | inactive: -0.694 | – | inactive: 1.82
20 | Cc1cn([C@H]2C=C[C@@H](CO)O2)c(=O)[nH]c1=O [stavudine] | – | inactive: -0.529 | –
21 | CC(C)=CCNc1ncnc2c1ncn2[C@@H]1O[C@H](CO)[C@@H](O)[C@H]1O | inactive: -1.25 | inactive: 1.44 | active: 8.3
22 | CCCc1ccc(NS(=O)(=O)Cc2ccccc2)c(=O)n1CC(=O)NCc1ccccc1C | inactive: -0.578 | inactive: -0.926 | inactive: 1.3
23 | NC1CCN(c2nc3c(cc2F)c(=O)c(C=O)cn3-c2ccc(F)cc2F)C1 (stereo not drawn) | inactive: 1.65 | inactive: 0.401 | inactive: -0.436
24 | COc1ccc(C2=C(C(=O)O)[C@@H](c3ccc4c(c3)OCO4)Oc3ccc(OC(C)C)cc32)cc1 | inactive: -0.636 | inactive: 0.396 | inactive: 0.0565
25 | O=C(CCCl)NCc1ccccc1 | inactive: -0.579 | inactive: -0.716 | inactive: -0.75
26 | O=C(Nc1ccc(Oc2ccc(Cl)cc2)c(Cl)c1)c1cc(I)cc(I)c1O | inactive: -0.68 | inactive: -1.92 | inactive: -1.05
27 | CNC(=O)c1ccccc1Nc1cc(Nc2ccc(N3CCOCC3)cc2OC)ncc1C(F)(F)F | inactive: -0.997 | inactive: -2.79 | inactive: -2.85
28 | C/C=C/C[C@@H](C)[C@@H](O)[C@H]1C(=O)N[C@@H](CC)C(=O)N(C)[C@H](C)C(=O)N(CC)[C@@H](C(C)C)C(=O)N[C@@H](C(C)C)C(=O)N(C)[C@@H](CC(C)C)C(=O)N[C@@H](C)C(=O)N[C@H](C)C(=O)N(C)[C@@H](CC(C)C)C(=O)N(C)[C@@H](CC(C)C)C(=O)N(C)[C@@H](C(C)C)C(=O)N1C [Alisporivir] | inactive: -1.48 | inactive: -1.12 | inactive: 0.538

Row | Structure (SMILES) | TEAD-luciferase reporter activity (compound concentration: 200 nM) | TEAD-luciferase reporter activity (compound concentration: 2 uM) | TEAD-luciferase reporter activity (compound concentration: 10 uM)
29 | CCCC(CCC)C(N)=O [Valpromide] | inactive: 3.74 | inactive: -0.138 | inactive: 0.978
30 | COc1cc2c(cc1OC)C(C)N(S(=O)(=O)c1cn(C)c(C)n1)CC2 (stereo not drawn) | inactive: -0.525 | inactive: -1.09 | inactive: 1.07
31 | COc1cc(C(C)=O)ccc1OCCN1CCOCC1 | inactive: -1.24 | inactive: -0.863 | inactive: 3.9
32 | COC(=O)C(CC(C)C)NC(=O)C(N)CC(C)C (stereo not drawn) [Leucylleucine methyl ester] | inactive: 1.14 | inactive: -0.831 | inactive: -0.747
33 | CC[C@@H]1C[C@]1(NC(=O)[C@@H]1C[C@@H]2CN1C(=O)[C@H](C(C)(C)C)NC(=O)OCC(C)(C)CCCCc1cccc3c1CN(C3)C(=O)O2)C(=O)NS(=O)(=O)C1CC1 [Vaniprevir] | inactive: 1.91 | inactive: -1.67 | inactive: 1.44
34 | C=CCNc1nc(NCC=C)nc(N2CCC(NCC(c3ccc(F)cc3)c3ccc(F)cc3)CC2)n1 | inactive: -2.34 | inactive: -0.851 | inactive: -1.02
35 | C[C@H]1CC2C3C[C@H](F)C4=CC(=O)C=CC4(C)[C@@]3(F)C(O)CC2(C)[C@@]1(O)C(=O)CCl (stereo partly drawn) | inactive: -0.514 | inactive: 3.36 | inactive: 1.11
36 | Cc1ccc(C(=O)Nc2ccc(Oc3cc4cnn(C)c4cc3-c3cn[nH]c3)c(F)c2)c(=O)n1-c1ccc(F)cc1 [Merestinib] | inactive: -1.37 | inactive: -1.39 | inactive: -2.42
37 | O=c1cc(-c2ccc(O)cc2)oc2cc(O)cc(O)c12 | – | inactive: -0.438 | –
38 | O=c1cc(-c2ccc(O)cc2)oc2cc(O)cc(O)c12 [Apigenin] | inactive: -1.39 | – | inactive: 1.76
39 | CCn1c(/N=N/N(C)C)nc2c1c(=O)n(C)c(=O)n2C [etheophazine] | inactive: 3.54 | inactive: -0.342 | inactive: -1.56
40 | CC1(C)Cc2nc(C3CCCC3)c(C(F)c3ccc(C(F)(F)F)cc3)c(C3CCCCC3)c2[C@@H](O)C1 (stereo partly drawn) | inactive: -0.517 | inactive: -0.375 | inactive: -1.19
41 | Cc1cc(NC(=O)c2c(C)cccc2C)no1 [Soretolide] | inactive: 0.808 | – | inactive: 0.153
42 | CC(CO)(CO)NCc1ccc2c3c(cccc13)-c1ccccc1-2 | inactive: 0.217 | inactive: 2.23 | inactive: 0.424
43 | Cc1cc(OC2CN(Cc3ccc(C#N)cc3)C2)ccc1F | inactive: 1.16 | – | inactive: -0.46
44 | O=C(O)CN(CCN(CC(=O)O)Cc1ccccc1O)Cc1ccccc1O | inactive: -0.198 | – | inactive: -0.927
45 | CC(C#Cc1ccc(Cc2ccc(F)cc2)s1)N(O)C(N)=O (stereo not drawn) | inactive: 3.37 | inactive: -0.613 | inactive: 2.81
46 | O=C(c1ccc2nonc2c1)N1CCCCC1 | inactive: -0.567 | inactive: 0.32 | inactive: -1.72
47 | C=C1C[C@@]23CC[C@H]4[C@@](C)(CCC[C@@]4(C)C(=O)O[C@@H]4O[C@H](CO)[C@@H](O)[C@H](O)[C@H]4O)[C@@H]2CC[C@]1(O[C@@H]1O[C@H](CO)[C@@H](O)[C@H](O)[C@H]1O[C@@H]1O[C@H](CO)[C@@H](O)[C@H](O)[C@H]1O)C3 [Stevioside] | inactive: -0.0123 | inactive: -0.315 | inactive: 0.825
48 | O=C1Cc2cc(CCN3CCN(c4nsc5ccccc45)CC3)c(Cl)cc2N1 [Ziprasidone HCl] | inactive: -1.4 | – | inactive: -1.01
49 | O=C1Cc2cc(CCN3CCN(c4nsc5ccccc45)CC3)c(Cl)cc2N1 [ziprasidone] | – | inactive: -1.18 | –
50 | COC(=O)[C@H]1Cc2cc(C(=O)CNS(=O)(=O)c3ccc(Cl)cc3)ccc2O1 | inactive: -0.917 | inactive: -0.4 | inactive: -1.29
51 | O=C(O)c1c(O)c(Cc2ccc(Cl)cc2)nc2c3c(ccc12)CCCC3 | inactive: 1.66 | inactive: -0.956 | inactive: 0.216
52 | O=C(NCC1CCCCN1)c1cc(OCC(F)(F)F)ccc1OCC(F)(F)F (stereo not drawn) [flecainide acetate] | inactive: -0.416 | inactive: -0.648 | inactive: -0.562
53 | CCCN1CC(NS(=O)(=O)N(CC)CC)CC2Cc3c(O)cccc3CC21 (stereo not drawn) [Quinagolide hydrochloride] | inactive: -1.1 | inactive: -0.905 | inactive: 0.153
54 | C[C@@H](O)[C@H]1C(=O)N2C(C(=O)O)=C(S[C@H]3CC[S@@](=O)C3)S[C@H]12 | inactive: 3.75 | inactive: -1.22 | inactive: 0.715
55 | CCC(=O)c1cc(C(C)(C)C)cc(CN)c1O | inactive: -0.408 | inactive: 0.94 and inactive: -0.619 | inactive: -0.0876
